No constants are given. Whether binding was seen depends on the method and setting. Binding seen in cells or lysates may run through a third protein. A result given as binding can be weak or reduced; the word gives no strength.
Biological target: SMAC/Diablo, endogenous (human (endogenous in A549))
Test: proximity ligation; in‐situ PLA on fixed, permeabilized A549 cells (A549‐SMAC‐KO cells as control); anti‐SMAC (rabbit) and anti‐PSD (mouse)

- binding: binds
B1: phosphatidylserine decarboxylase (PSD), endogenous (enzyme, UniProt Q9UG56 53-409)
chain: IHTAPARTMFLLRPLPILLVTGGGYAGYRQYEKYRERELEKLGLEIPPKLAGHWEVALYKSVPTRLLSRAWGRLNQVELPHWLRRPVYSLYIWTFGVNMKEAAVEDLHHYRNLSEFFRRKLKPQARPVCGLHSVISPSDGRILNFGQVKNCEVEQVKGVTYSLESFLGPRMCTEDLPFPPAASCDSFKNQLVTREGNELYHCVIYLAPGDYHCFHSPTDWTVSHRRHFPGSLMSVNPGMARWIKELFCHNERVVLTGDWKHGFFSLTAVGATNVGSIRIYFDRDLHTNSPRHSKGSYNDFSFVTHTNREGVPMRKGEHLGEFNLGSTIVLIFEAPKDFNFQLKTGQKIRFGEALGSL

— article PMC8564633, “SMAC/Diablo controls proliferation of cancer cells by regulating phosphatidylethanolamine synthesis” (Molecular Oncology, 2021)
